These are yes or no findings as the source states them, for the method shown. Some binding calls cover weakened binding; strength is not graded here.
Target: ACBD3 (unlabeled) (UniProt Q9H3P7)
Experiment: GUV membrane recruitment assay (confocal microscopy); CFP-3A tethered to GUVs containing 5% DGS-NTA(Ni); Alexa488 labeled PI4KB and unlabeled ACBD3 added together (250 nM each); both purified

Amino acid sequences for entries named in this document (tags omitted).
UniProt Q9H3P7: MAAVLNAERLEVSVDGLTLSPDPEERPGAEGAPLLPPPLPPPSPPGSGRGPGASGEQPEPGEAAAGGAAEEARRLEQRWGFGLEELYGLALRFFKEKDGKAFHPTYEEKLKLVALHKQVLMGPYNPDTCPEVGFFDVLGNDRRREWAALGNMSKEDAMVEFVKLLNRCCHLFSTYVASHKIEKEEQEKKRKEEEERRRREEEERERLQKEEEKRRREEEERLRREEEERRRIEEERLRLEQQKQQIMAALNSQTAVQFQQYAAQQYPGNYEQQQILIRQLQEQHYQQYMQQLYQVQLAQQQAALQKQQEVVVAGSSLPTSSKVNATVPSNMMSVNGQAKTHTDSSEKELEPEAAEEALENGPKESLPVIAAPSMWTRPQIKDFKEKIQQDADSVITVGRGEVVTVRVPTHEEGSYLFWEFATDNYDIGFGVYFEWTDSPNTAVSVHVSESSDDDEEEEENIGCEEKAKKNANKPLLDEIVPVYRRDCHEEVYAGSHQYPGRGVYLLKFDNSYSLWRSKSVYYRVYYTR

binding: binds
B1: PI4KB labeled by Alexa488 (with deleted disordered loop 424-521) (enzyme, UniProt Q9UBF8)
chain: MGDTVVEPAPLKPTSEPTSGPPGNNGGSLLSVITEGVGELSVIDPEVAQKACQEVLEKVKLLHGGVAVSSRGTPLELVNGDGVDSEIRCLDDPPAQIREEEDEMGAAVASGTAKGARRRRQNNSAKQSWLLRLFESKLFDISMAISYLYNSKEPGVQAYIGNRLFCFRNEDVDFYLPQLLNMYIHMDEDVGDAIKPYIVHRCRQSINFSLQCALLLGAYSSDMHISTQRHSRGTKLRKLILSDELKPAHRKRELPSLSPAPDTGLSPSKRTHQRSKSDATASISLSSNLKRTASNPKVENEDEELSSSTESIDNSFSSPVRLAPEREFIKSLMAIGKRLATLPTKEQKTQRLISELSLLNHKLPARVWLPTAGFDHHVVRVPHTQAVVLNSKDKAPYLIYVEVLECENFDTTSVPARIPENRIKRDPEDPSAVALKEPWQEKVRRIREGSPYGHLPNWRLLSVIVKCGDDLRQELLAFQVLKQLQSIWEQERVPLWIKPYKILVISADSGMIEPVVNAVSIHQVKKQSQLSLLDYFLQEHGSYTTEAFLSAQRNFVQSCAGYCLVCYLLQVKDRHNGNILLDAEGHIIHIDFGFILSSSPRNLGFETSAFKLTTEFVDVMGGLDGDMFNYYKMLMLQGLIAARKHMDKVVQIVEIMQQGSQLPCFHGSSTIRNLKERFHMSMTEEQLQLLVEQMVDGSMRSITTKLYDGFQYLTNGIM
modifications: Alexa488 maleimide on native cysteine residues (labeling efficiency 116%)

From paper PMC5725453
